This is one part of the list.

The assay addresses T1, OsSMF1 (Oryza sativa, UniProt Q6ZLB0 1-436).
T1 sequence: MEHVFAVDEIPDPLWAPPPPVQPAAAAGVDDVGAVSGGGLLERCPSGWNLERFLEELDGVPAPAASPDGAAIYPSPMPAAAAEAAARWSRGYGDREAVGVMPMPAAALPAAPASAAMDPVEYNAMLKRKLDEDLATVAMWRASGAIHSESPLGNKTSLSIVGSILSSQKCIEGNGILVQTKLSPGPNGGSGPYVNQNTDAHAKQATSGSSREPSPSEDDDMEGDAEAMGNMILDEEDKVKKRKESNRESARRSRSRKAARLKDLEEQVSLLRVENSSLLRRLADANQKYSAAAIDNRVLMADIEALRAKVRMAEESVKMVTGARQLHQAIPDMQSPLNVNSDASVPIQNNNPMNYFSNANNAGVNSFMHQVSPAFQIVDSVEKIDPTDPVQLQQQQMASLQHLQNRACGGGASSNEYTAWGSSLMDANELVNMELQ
The assay is described as follows: protein-binding microarray (RPBM); PBS, 2% BSA, 51.3 ng/ul salmon testes DNA, 50 uM zinc acetate, 200 nM TF, 25 C, 1 h; high values mean tight binding. The conditions noted are these: protein: recombinant; tags: N-terminal polyhistidine and DsRed monomer fusion (pET32a); chain copies: 2; label: CyDye5-dUTP incorporated in the synthesized complementary strand; 3' TTTTT single-stranded linker to array surface; dsDNA, one strand shown. Summed up: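 An Axon 4000B scanner gave the binding signal as per-feature fluorescence intensity in arbitrary units. This followed washing of a custom Agilent array that had been incubated for 1 h at 25 °C with 200 nM protein in PBS, 2% BSA, salmon testes DNA and 50 µM zinc acetate. The proteins were transcription factors fused at the N-terminus to polyhistidine and DsRed, expressed in E. coli BL21-CodonPlus and purified on Ni–NTA.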
As for “GAAATTGGAGATGATGTGACTGAAAAGTTGTGTGTGTATGCGGAGTCACCTAGTGCAG”, the binding signal is 3450 fluorescence intensity (a.u.).

Regarding “TTGGTACTGATACTGTACGTGTCAACGAGTTGAGACCCGCCGGAGTCACCTAGTGCAG”, the binding signal is 6740 fluorescence intensity (a.u.).

“CTCCTAATTAGCAATTTGCTTACTCTTAATCTCCCTCACTCGGAGTCACCTAGTGCAG”: the binding signal is 27500 fluorescence intensity (a.u.).

On to “GCCGTTCGCCACCACGCCTACTTCGCCGGCTGCCCTCGCCCGGAGTCACCTAGTGCAG”, for which the binding signal is 3470 fluorescence intensity (a.u.).

For “CGCGAGCTACGTGCTTACGTTGGCTCTGTCGATTATTCCACGGAGTCACCTAGTGCAG”, the binding signal was 5490 fluorescence intensity (a.u.).

Regarding “CGCTGGCTTCTGTTGTGCTACTTAATTACGTGTTTAGTGCCGGAGTCACCTAGTGCAG”, the binding signal was 5300 fluorescence intensity (a.u.).

For “AAAGGGTAGTACACACACTGCCGCCTCAGCGGGGAGATCTCGGAGTCACCTAGTGCAG”, the binding signal was 3310 fluorescence intensity (a.u.).

Regarding “GATGCCATCTAATTTTAAATGATGATGTGGAGAAGAGAGTCGGAGTCACCTAGTGCAG”, the binding signal is 6180 fluorescence intensity (a.u.).

For “AAAGCTGCTGATGTTGGTGCTGACCTTGTTGGGAAGGTGGCGGAGTCACCTAGTGCAG”, the binding signal was 3570 fluorescence intensity (a.u.).

“CTTACTCTCTCCGTCTCTAAATATTTGACGCCGTTGACTTCGGAGTCACCTAGTGCAG”: the binding signal is 33600 fluorescence intensity (a.u.).

Take “GCCCAATCGCCGCCCGCCACGTGCCCCTTCCCGGATACCGCGGAGTCACCTAGTGCAG”: the binding signal is 9810 fluorescence intensity (a.u.).

For the sequence “TGGTCCAGTCATTCATCTATGCACGTACATTAACTCCTTCCGGAGTCACCTAGTGCAG”, the binding signal is 5460 fluorescence intensity (a.u.).

“TGGCGTGTAATACGAAAGGAAATCGTGACATGGGCAGATCCGGAGTCACCTAGTGCAG”: the binding signal was 4580 fluorescence intensity (a.u.).

For the sequence “GGGGTATGCAATCATGCGTATGCATGTCAGCATGTGTCTGCGGAGTCACCTAGTGCAG”, the binding signal was 6010 fluorescence intensity (a.u.).

Regarding “GGCACCACGTCCCGAAACGGACGGTGCTGAGTCGGCGGAGCGGAGTCACCTAGTGCAG”, the binding signal was 5580 fluorescence intensity (a.u.).

As for “TTGGATTGGACCTGACCTGGGAGGCCATGACGGAGTTGGCCGGAGTCACCTAGTGCAG”, the binding signal was 3210 fluorescence intensity (a.u.).

Take “CCCTCTCTCCTCCACGTCAACTCTTCGCCAACGTGGCTGACGGAGTCACCTAGTGCAG”: the binding signal is 10900 fluorescence intensity (a.u.).

With “TATCTTTACCCTCTACATCATTTTGATTGTGTCATTGCCTCGGAGTCACCTAGTGCAG”, the binding signal was 5590 fluorescence intensity (a.u.).

On to “TGCTAACTGACGTCTGAGGTGGCTCGTGTGCAGTCGTCCACGGAGTCACCTAGTGCAG”, for which the binding signal is 6590 fluorescence intensity (a.u.).

Consider “CACCTAGCTCTCACTTGCCACCTCAACTTTCACCATTAACCGGAGTCACCTAGTGCAG”, for which the binding signal is 4270 fluorescence intensity (a.u.).

Take “CCCTTTTCGACGGAAGACGAACTGGTGCTTTGGGGAGTTTCGGAGTCACCTAGTGCAG”: the binding signal is 3870 fluorescence intensity (a.u.).

Regarding “CTGCCCAACCCTCTCACCCTAGCTTAGTTTGCCACGACCTCGGAGTCACCTAGTGCAG”, the binding signal is 3720 fluorescence intensity (a.u.).

As for “CCGTGGGGTTCGCGCTGGCGTGCGTCCGCATCGCGGCGGGCGGAGTCACCTAGTGCAG”, the binding signal was 4490 fluorescence intensity (a.u.).

Values taken from article PMC7819943, “Rice protein-binding microarrays: a tool to detect cis-acting elements near promoter regions in rice”.
